The values below come from article PMC7461331, “Stability of Begomoviral pathogenicity determinant βC1 is modulated by mutually antagonistic SUMOylation and SIM interactions” (BMC Biology, 2020).

Results are given in words; binding and its absence hold for the method and conditions named. A result given as binding can be weak or reduced; the word gives no strength. Where a sequence is shown, tags or fusion partners need not be part of it. For some of these results: In cells and extracts the contact can be indirect.

Test [1] addresses MBP-tagged SyYVCV βC1 expressed in plants (Synedrella yellow vein clearing virus). Put plainly: co-IP; MBP-βC1 transiently co-expressed with GFP-tagged SUMO proteins in N. tabacum; IP with anti-MBP (MBP magnetic beads), blot with anti-GFP and anti-MBP; 4-20% denaturing reducing gel.
Test [2] addresses SyYVCV βC1 fused to the binding domain (yeast two-hybrid bait) (Synedrella yellow vein clearing virus). Put plainly: two-hybrid; βC1 fused to the binding domain (pGBKT7) as bait, SUMO proteins fused to the activation domain (pGADT7) as prey, yeast AH109; selected on -Leu -Trp, screened on -Leu -Trp -His with or without 3AT (0.2 mM 3AT for NbSUMO1) and on -Leu -Trp -His -Ade.

B1: GFP-tagged AtSUMO3 (protein, UniProt Q9FLP5 1-111)
chain: MSNPQDDKPIDQEQEAHVILKVKSQDGDEVLFKNKKSAPLKKLMYVYCDRRGLKLDAFAFIFNGARIGGLETPDELDMEDGDVIDACRAMSGGLRANQRQWSYMLFDHNGL
For B1, in test [1], the binding result is “binds weakly”.

B2: AtSUMO3 fused to the activation domain (yeast two-hybrid prey) (protein, UniProt Q9FLP5 1-111)
chain: MSNPQDDKPIDQEQEAHVILKVKSQDGDEVLFKNKKSAPLKKLMYVYCDRRGLKLDAFAFIFNGARIGGLETPDELDMEDGDVIDACRAMSGGLRANQRQWSYMLFDHNGL
As to B2, the binding result in test [2] is listed as “binds”.

B3: GFP-tagged AtSUMO5 (protein, UniProt Q8VZI7 1-108)
chain: MVSSTDTISASFVSKKSRSPETSPHMKVTLKVKNQQGAEDLYKIGTHAHLKKLMSAYCTKRNLDYSSVRFVYNGREIKARQTPAQLHMEEEDEICMVMELGGGGPYTP
Regarding B3, the binding result in test [1] is given as “binds weakly”.

B4: AtSUMO5 fused to the activation domain (yeast two-hybrid prey) (protein, UniProt Q8VZI7 1-108)
chain: MVSSTDTISASFVSKKSRSPETSPHMKVTLKVKNQQGAEDLYKIGTHAHLKKLMSAYCTKRNLDYSSVRFVYNGREIKARQTPAQLHMEEEDEICMVMELGGGGPYTP
With B4, the binding result in test [2] was “binds”.
